# According to PubChem BioAssay AID588590 (National Center for Advancing Translational Sciences (NCATS), 2011):
# Protein sequences, listed by entry. Tags and fused reporters are not part of them. Lines headed by an entry give the natural chain unless they say otherwise; changes in a name come on top.
# UniProt Q9UNA4: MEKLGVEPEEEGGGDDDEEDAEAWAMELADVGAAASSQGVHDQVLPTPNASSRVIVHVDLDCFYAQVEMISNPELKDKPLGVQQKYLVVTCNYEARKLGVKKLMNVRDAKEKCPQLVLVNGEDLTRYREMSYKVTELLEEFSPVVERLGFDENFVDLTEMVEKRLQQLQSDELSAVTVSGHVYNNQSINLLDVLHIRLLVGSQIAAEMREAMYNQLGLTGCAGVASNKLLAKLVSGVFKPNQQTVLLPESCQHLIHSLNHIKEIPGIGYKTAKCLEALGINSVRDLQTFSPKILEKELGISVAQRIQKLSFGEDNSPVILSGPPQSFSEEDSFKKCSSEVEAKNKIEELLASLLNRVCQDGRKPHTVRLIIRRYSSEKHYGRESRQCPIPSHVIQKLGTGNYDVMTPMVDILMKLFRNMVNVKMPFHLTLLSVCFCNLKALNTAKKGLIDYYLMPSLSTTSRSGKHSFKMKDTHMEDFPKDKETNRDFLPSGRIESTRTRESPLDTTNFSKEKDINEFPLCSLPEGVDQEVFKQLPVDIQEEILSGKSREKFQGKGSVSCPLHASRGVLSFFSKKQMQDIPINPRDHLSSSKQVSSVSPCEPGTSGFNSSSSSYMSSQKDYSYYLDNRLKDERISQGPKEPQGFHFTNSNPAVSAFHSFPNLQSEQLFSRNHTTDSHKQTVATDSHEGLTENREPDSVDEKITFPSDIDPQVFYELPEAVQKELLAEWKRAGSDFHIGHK
# Where “and” joins values, the source holds several entries; their conditions need not be identical. Identical values can stand only once. The whole screen tested about 390,000 compounds, of which about 4,000 (1%) were called active. Inconclusive results, whose numbers are uncertain, are shown with a selection of clear calls. Calls follow the shape of the dose curve; as a rule, active = well fitted inhibition curve with a large enough effect; inconclusive = small, poorly fitted or top-dose-only effect, or another doubt; inactive = no such curve, though single readings can be large or run the other way. A potency beside an inconclusive call is a rough fit, not a confirmed value.
# Biological target: DNA polymerase iota (Homo sapiens) (UniProt Q9UNA4)
# Experiment: qHTS for Inhibitors of Polymerase Iota
# Settings: Pol iota fluorescent replication assay, 10 min; series mostly up to 115 µM
# How it was run: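 Pol iota at 10 nM preincubated 15 min with compounds at room temperature; reaction started with fluorescent substrate, 50 nM final. Fluorescence read kinetically at 0 and 10 min; buffer-only wells as negative control.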
# Potency is read from the fitted curve at half-maximal effect.
row,SMILES,Potency
1,CCc1ccc(Cn2nnc(C(=O)NCc3ccccc3OC)c2N)cc1,"inconclusive: 56.2 µM [inhibitor, partial curve, poor fit]"
2,COc1cccc(NC(=O)Nc2cc(-c3cn4cccnc4n3)ccc2OC)c1,"inconclusive: 79.4 µM [inhibitor, partial curve, poor fit]"
3,COc1cc(/C=C2\C(=N)N3N=C(N4CCOCC4)SC3=NC2=O)ccc1OC(=O)c1ccccc1,"inconclusive: 2.51 µM [inhibitor, partial curve, poor fit]"
4,COc1cccc(CNC(=O)C2CCCN(c3nc4ccccc4o3)C2)c1 (stereo not drawn),"inconclusive: 35.5 µM [inhibitor, full curve, poor fit]"
5,FC(F)(F)c1cc(CCN2C(=S)NC[C@@H]2c2ccccc2)cc(C(F)(F)F)c1,"inconclusive: 31.6 µM [inhibitor, single point]"
6,COc1ccc(C2=NS(=O)(=O)N(C)C(C(=O)NCc3ccccn3)=C2)cc1,"inconclusive: 2.24 µM [inhibitor, partial curve, poor fit]"
7,O=C(Nc1ccc(F)cc1)C1C(c2ccccc2)C1(Cl)Cl (stereo not drawn),inactive
8,Cc1cc(=O)cc(C)n1-c1ccc2c(c1)nc(C)n2-c1ccccc1,"inconclusive: 79.4 µM [inhibitor, partial curve]"
9,Cc1noc(C)c1NC(=O)Nc1cccc2c1O[C@@H](CN(C)C(=O)Nc1ccc3c(c1)OCO3)[C@@H](C)CN([C@H](C)CO)C2=O,"inconclusive: 89.1 µM [inhibitor, single point]"
10,O=C(Cc1cccs1)Nc1cccc([N+](=O)[O-])c1,"inconclusive: 15.8 µM [inhibitor, full curve, poor fit]"
11,O=C(Nc1ccc2nc(SCC(=O)N3CCc4ccccc43)sc2c1)c1ccc(Cl)cc1,"inconclusive: 89.1 µM [inhibitor, single point]"
12,COc1ccccc1NC(=O)c1c(C)nc2ccccc2c1C(=O)O,inactive
13,C#CCOCCOCCOCCNc1nc(N2CCN(C(=O)[C@H](CCCCN)n3cc([C@@H](N)C(C)CC)nn3)CC2)nc(N2CCN(C(=O)[C@H](Cc3cc4ccccc4[nH]3)n3cc([C@@H](N)C(C)CC)nn3)CC2)n1 (stereo partly drawn),"inconclusive: 17.8 µM [inhibitor, partial curve]"
14,C=CCN1C(=O)/C(=c2\sc3nc(=O)c(Cc4ccccc4)nn3c2=O)c2ccccc21,"inconclusive: 28.2 µM [inhibitor, partial curve, poor fit]"
15,CCCOc1ccc(CNC(=O)c2cc3oc4ccccc4c3n2C)cc1,inactive
16,COc1ccc2oc(C(=O)OCC(=O)NCCc3ccc(S(N)(=O)=O)cc3)c(C)c2c1,"inconclusive: 14.1 µM [inhibitor, full curve, poor fit]"
17,Cc1oc2c(c1C(=O)NCc1cccnc1)C(=O)c1ccccc1C2=O,"inconclusive: 10 µM [inhibitor, full curve, poor fit]"
18,CS(=O)(=O)Nc1ccc(C2=NN(C(=O)c3ccco3)C(c3cccc(F)c3)C2)cc1 (stereo not drawn),inactive
19,CC1C=CC=CC=CC=CC=CC=CC=CC(OC2OC(C)C(O)C(N)C2O)CC2OC(O)(CC(O)CC(O)C(O)CCC(O)CC(O)CC(=O)OC(C)C(C)C1O)CC(O)C2C(=O)O (stereo not drawn),active: 1.26 µM

row,SMILES,Potency
1,CCc1cc2c(Nc3ccc(O)cc3)nc(C)nc2s1,"inconclusive: 25.1 µM [inhibitor, single point]"
2,C=CCOC(=O)C1=C(C)NC(=S)NC1/C=C/c1ccccc1 (stereo not drawn),"inconclusive: 35.5 µM [inhibitor, full curve]"
3,CCOc1ccccc1NC(=O)C(=O)NCC(c1cccnc1)N1CCN(c2ccccc2)CC1 (stereo not drawn),"inconclusive: 79.4 µM [inhibitor, partial curve]"
4,COc1ccc(C[C@H]2CN3C(=NC[C@@H]3Cc3ccc(O)cc3)N2C[C@H](C)NC(=O)c2ccc(C)c(Br)c2)cc1,"inconclusive: 39.8 µM [inhibitor, partial curve]"
5,COc1ccc(C(=O)COC(=O)c2nn(C)c(=O)c3ccccc23)c(OC)c1,"inconclusive: 63.1 µM [inhibitor, single point]"
6,c1ccc(-c2nnc(N3CCOCC3)nc2-c2ccccc2)cc1,"inconclusive: 50.1 µM [inhibitor, partial curve, poor fit]"
7,O=C1CS/C(=N\N=C\c2ccccc2Cl)N1CC1CC1,"inconclusive: 14.1 µM [inhibitor, partial curve, poor fit]"
8,CC1CN(C(C)C)C(C)CC1OC(=O)c1ccccc1 (stereo not drawn),"inconclusive: 31.6 µM [inhibitor, single point]"
9,COc1cc(C(CC(=O)N2CCCC2)c2c(OC)cc(OC)c3ccc(=O)oc23)cc(OC)c1OC (stereo not drawn),"inconclusive: 44.7 µM [inhibitor, partial curve] and inconclusive: 89.1 µM [inhibitor, single point]"
10,O=C(COC(=O)C12CC3CC(CC(C3)C1)C2)NCc1ccco1,"inconclusive: 20 µM [inhibitor, full curve, poor fit]"
11,NC(=O)C1CCCN(C(=O)c2ccc3c(c2)NC(=O)CS3)C1 (stereo not drawn),inactive
12,O=C(O)c1ccc(CNC(=O)c2ccc(Br)o2)cc1,"inconclusive: 79.4 µM [inhibitor, partial curve]"
13,Nc1nnc(CSCc2ccc(F)cc2)s1,"inconclusive: 35.5 µM [inhibitor, partial curve, poor fit]"
14,CCOC(=O)C1CCN(C(=O)c2cc3c(C)cc(C)cc3[nH]2)CC1,"inconclusive: 35.5 µM [inhibitor, partial curve]"
15,CC1=NN(c2ccc(C(=O)OC(C)C)cc2)C(=O)/C1=C\C=C\c1ccco1,inactive
16,Cn1nnnc1Sc1ncnc2scc(-c3ccccc3C(F)(F)F)c12,inactive
17,CCOC(=O)Nc1ccc2c(CN3C(=O)NC4(CCCC4)C3=O)cc(=O)oc2c1,"inconclusive: 14.1 µM [inhibitor, partial curve, poor fit]"
18,O=C(O)c1ccccc1Nc1ccc([N+](=O)[O-])cc1C(=O)O,inactive
19,Cc1ccc(C)c(S(=O)(=O)Nc2ccccc2C(=O)Nc2ccccc2N2CCOCC2)c1,"inconclusive: 39.8 µM [inhibitor, single point]"
